Measured values: PMC5334642 (Scientific Reports, 2017)

What was measured:
[1] = general procedure: Fmoc solid-phase peptide synthesis; Wang resin preloaded with the first Fmoc-protected amino acid (0.69 mmol g^-1); HBTU / DIPEA; conditions: whole synthesis
[2] = general procedure: Fmoc solid-phase peptide synthesis; Wang resin; HBTU / DIPEA; conditions: whole synthesis, scale 0.25 mmol

| Substance | isolated mass [1] | isolated yield ([1]; scale of the general procedure 0.25 mmol) | isolated mass [2] | isolated yield [2] |
| --- | --- | --- | --- | --- |
| N- Val3-His-Gly-Val3 | 38 mg | 19% |  |  |
| N-Octanoic acid-Val3-His-Gly-Val3 |  |  | 52 mg | 22% |
